Results are given in words; binding and its absence hold for the method and conditions named. In cells and extracts the contact can be indirect. Some entries that bind do so weakly or less than the wild type. Sequences can lack the tags named with a protein.
Target: T1, IL17RC-Flag (human) (UniProt Q8NAC3)
T1 sequence: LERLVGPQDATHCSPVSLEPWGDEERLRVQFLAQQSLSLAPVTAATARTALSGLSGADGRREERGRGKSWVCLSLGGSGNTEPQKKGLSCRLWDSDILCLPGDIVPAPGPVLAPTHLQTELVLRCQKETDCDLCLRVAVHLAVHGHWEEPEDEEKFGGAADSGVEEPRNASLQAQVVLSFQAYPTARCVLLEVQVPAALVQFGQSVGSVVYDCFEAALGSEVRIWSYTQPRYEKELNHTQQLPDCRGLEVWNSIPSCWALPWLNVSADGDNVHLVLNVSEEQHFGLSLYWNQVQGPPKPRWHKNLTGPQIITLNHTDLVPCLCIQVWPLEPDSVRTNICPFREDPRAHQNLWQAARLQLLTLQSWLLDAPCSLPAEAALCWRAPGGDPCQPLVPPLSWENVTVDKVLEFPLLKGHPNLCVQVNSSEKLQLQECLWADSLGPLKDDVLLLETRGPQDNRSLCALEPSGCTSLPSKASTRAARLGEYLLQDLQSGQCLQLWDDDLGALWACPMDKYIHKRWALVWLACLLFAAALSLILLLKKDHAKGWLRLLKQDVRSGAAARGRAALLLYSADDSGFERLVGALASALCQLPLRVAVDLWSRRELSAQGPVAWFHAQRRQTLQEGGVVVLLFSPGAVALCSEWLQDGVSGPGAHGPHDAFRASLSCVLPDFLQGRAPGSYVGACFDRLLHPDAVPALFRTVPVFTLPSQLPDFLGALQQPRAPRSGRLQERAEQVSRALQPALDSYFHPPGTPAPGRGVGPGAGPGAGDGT
Test: co-IP; HEK293T cells co-transfected with IL17RA-HA (Wt or Y391*) and IL17RC-Flag or IL17RD-Flag (1.0 ug each); IP with mouse anti-DDDDK (Flag) agarose; western blots with anti-HA and anti-Flag

Amino acid sequences for entries named in this document (tags omitted). A change or cut given only in a name is not applied to a line headed by its entry. Chains listed by the source or under a name are the forms on record and can include a tag or linker. Residues count along the entry.
IL17RA-Wt-HA (wild-type interleukin 17 receptor type A, HA-tagged) (Q96F46, residues 33-866): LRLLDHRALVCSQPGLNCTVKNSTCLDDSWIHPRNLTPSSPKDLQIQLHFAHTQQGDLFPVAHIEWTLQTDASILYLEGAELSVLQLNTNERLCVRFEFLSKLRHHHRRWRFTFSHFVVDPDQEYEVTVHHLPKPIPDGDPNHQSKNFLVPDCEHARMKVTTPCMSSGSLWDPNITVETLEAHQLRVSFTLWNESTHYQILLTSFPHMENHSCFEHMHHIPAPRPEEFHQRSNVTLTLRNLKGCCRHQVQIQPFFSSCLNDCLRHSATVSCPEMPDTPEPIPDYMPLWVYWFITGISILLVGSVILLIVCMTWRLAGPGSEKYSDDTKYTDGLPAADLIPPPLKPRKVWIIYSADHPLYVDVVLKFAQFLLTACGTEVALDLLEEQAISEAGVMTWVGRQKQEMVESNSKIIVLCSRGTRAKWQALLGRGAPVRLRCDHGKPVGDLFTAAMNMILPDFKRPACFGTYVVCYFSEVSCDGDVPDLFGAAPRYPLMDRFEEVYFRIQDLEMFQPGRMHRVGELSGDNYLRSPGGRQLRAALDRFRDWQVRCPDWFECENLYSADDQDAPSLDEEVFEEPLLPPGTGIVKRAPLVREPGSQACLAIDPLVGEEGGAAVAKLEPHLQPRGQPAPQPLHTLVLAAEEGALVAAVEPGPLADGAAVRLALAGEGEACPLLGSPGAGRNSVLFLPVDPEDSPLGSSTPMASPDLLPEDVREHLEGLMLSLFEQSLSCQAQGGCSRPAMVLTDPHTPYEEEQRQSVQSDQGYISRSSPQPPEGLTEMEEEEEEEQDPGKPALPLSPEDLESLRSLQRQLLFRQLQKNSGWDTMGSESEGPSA
IL17RA-Y391*-HA (IL17RA p.Tyr391Ter mutant, HA-tagged) (Q96F46, residues 33-390): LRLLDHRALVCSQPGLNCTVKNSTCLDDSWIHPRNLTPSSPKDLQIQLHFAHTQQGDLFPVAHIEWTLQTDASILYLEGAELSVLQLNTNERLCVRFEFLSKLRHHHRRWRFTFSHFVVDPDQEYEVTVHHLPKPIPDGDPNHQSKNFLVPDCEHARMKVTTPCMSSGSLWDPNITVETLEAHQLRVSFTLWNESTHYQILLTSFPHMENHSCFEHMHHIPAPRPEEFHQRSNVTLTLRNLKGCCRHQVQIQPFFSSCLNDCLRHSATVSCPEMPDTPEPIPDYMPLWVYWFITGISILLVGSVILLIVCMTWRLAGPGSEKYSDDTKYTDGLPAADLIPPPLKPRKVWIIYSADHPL

Row | Substance | binding
1 | IL17RA-Wt-HA (wild-type interleukin 17 receptor type A, HA-tagged) (from UniProt Q96F46-1 33-866) | binds
2 | IL17RA-Y391*-HA (IL17RA p.Tyr391Ter mutant, HA-tagged) (from UniProt Q96F46-1 33-390) (receptor) | binds

— paper PMC11796622
